Publication PMC11523043

T1: Flag-tagged USP36 (UniProt Q9P275)
T1 sequence: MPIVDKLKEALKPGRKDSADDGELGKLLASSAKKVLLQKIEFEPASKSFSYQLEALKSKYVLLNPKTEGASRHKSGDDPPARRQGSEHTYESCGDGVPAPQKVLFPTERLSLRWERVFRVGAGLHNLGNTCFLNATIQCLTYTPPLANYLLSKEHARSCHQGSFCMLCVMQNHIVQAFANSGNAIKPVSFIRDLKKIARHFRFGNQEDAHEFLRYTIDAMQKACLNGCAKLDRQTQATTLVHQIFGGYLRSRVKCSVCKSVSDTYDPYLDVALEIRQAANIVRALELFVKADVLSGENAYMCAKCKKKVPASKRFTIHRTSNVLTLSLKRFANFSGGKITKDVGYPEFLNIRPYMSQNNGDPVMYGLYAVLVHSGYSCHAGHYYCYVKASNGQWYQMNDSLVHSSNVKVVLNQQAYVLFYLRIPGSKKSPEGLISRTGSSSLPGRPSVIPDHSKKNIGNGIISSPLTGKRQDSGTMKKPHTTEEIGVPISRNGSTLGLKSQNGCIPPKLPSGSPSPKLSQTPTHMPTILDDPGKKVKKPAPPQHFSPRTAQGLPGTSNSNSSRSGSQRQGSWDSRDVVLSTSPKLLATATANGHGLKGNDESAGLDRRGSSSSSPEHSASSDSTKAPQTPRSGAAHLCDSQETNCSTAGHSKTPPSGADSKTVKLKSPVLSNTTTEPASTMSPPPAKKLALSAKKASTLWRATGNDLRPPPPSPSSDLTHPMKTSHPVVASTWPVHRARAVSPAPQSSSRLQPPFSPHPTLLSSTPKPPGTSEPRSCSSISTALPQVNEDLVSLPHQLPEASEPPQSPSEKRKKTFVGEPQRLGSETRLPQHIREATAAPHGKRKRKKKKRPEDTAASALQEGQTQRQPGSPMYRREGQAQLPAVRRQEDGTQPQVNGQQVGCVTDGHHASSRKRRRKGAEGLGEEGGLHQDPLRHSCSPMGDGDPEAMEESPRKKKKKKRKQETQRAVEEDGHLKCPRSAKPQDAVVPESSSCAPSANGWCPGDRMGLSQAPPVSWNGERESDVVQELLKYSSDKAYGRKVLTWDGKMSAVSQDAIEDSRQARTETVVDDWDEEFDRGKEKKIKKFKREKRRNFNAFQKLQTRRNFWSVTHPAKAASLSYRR

B1: endogenous Las1L (enzyme, UniProt Q9Y4W2 1-734)
chain: MSWESGAGPGLGSQGMDLVWSAWYGKCVKGKGSLPLSAHGIVVAWLSRAEWDQVTVYLFCDDHKLQRYALNRITVWRSRSGNELPLAVASTADLIRCKLLDVTGGLGTDELRLLYGMALVRFVNLISERKTKFAKVPLKCLAQEVNIPDWIVDLRHELTHKKMPHINDCRRGCYFVLDWLQKTYWCRQLENSLRETWELEEFREGIEEEDQEEDKNIVVDDITEQKPEPQDDGKSTESDVKADGDSKGSEEVDSHCKKALSHKELYERARELLVSYEEEQFTVLEKFRYLPKAIKAWNNPSPRVECVLAELKGVTCENREAVLDAFLDDGFLVPTFEQLAALQIEYEDGQTEVQRGEGTDPKSHKNVDLNDVLVPKPFSQFWQPLLRGLHSQNFTQALLERMLSELPALGISGIRPTYILRWTVELIVANTKTGRNARRFSAGQWEARRGWRLFNCSASLDWPRMVESCLGSPCWASPQLLRIIFKAMGQGLPDEEQEKLLRICSIYTQSGENSLVQEGSEASPIGKSPYTLDSLYWSVKPASSSFGSEAKAQQQEEQGSVNDVKEEEKEEKEVLPDQVEEEEENDDQEEEEEDEDDEDDEEEDRMEVGPFSTGQESPTAENARLLAQKRGALQGSAWQVSSEDVRWDTFPLGRMPGQTEDPAELMLENYDTMYLLDQPVLEQRLEPSTCKTDTLGLSCGVGSGNCSNSSSSNFEGLLWSQGQLHGLKTGLQLF
B2: endogenous Nol9 (enzyme, UniProt Q5SY16 1-702)
chain: MADSGLLLKRGSCRSTWLRVRKARPQLILSRRPRRRLGSLRWCGRRRLRWRLLQAQASGVDWREGARQVSRAAAARRPNTATPSPIPSPTPASEPESEPELESASSCHRPLLIPPVRPVGPGRALLLLPVEQGFTFSGICRVTCLYGQVQVFGFTISQGQPAQDIFSVYTHSCLSIHALHYSQPEKSKKELKREARNLLKSHLNLDDRRWSMQNFSPQCSIVLLEHLKTATVNFITSYPGSSYIFVQESPTPQIKPEYLALRSVGIRREKKRKGLQLTESTLSALEELVNVSCEEVDGCPVILVCGSQDVGKSTFNRYLINHLLNSLPCVDYLECDLGQTEFTPPGCISLLNITEPVLGPPFTHLRTPQKMVYYGKPSCKNNYENYIDIVKYVFSAYKRESPLIVNTMGWVSDQGLLLLIDLIRLLSPSHVVQFRSDHSKYMPDLTPQYVDDMDGLYTKSKTKMRNRRFRLAAFADALEFADEEKESPVEFTGHKLIGVYTDFAFRITPRNRESHNKILRDLSILSYLSQLQPPMPKPLSPLHSLTPYQVPFNAVALRITHSDVAPTHILYAVNASWVGLCKIQDDVRGYTNGPILLAQTPICDCLGFGICRGIDMEKRLYHILTPVPPEELRTVNCLLVGAIAIPHCVLKCQRGIEGTVPYVTTDYNFKLPGASEKIGAREPEEAHKEKPYRRPKFCRKMK

Target: T1, Flag-tagged USP36
Assay: affinity purification with mass spectrometry; immunoprecipitates from control 293 and 293-Flag-USP36 cells by anti-Flag antibody, mass spectrometry

Binder	binding
B1	binds
B2	binds

No constants are given. Whether binding was seen depends on the method and setting. Binding seen in cells or lysates may run through a third protein. A yes stands for co-enrichment or nearness to the bait. Other partners may have been found. Where a sequence is shown, tags or fusion partners need not be part of it.
